Laboratory results from patent US20230346864A1, “Compositions and Methods for Joint Health” (Innophos, LLC, priority 2020, published 2023).
Some results were stated once for a whole list of compounds, not compound by compound.

Test system: TNF-α
Experiment: CIA rats: serum TNF-α ELISA
Assay type: in vivo, Rat
Details: Methotrexate 0.5 mg/kg; statistically significant vs vehicle treated CIA rats

## CN(Cc1cnc2nc(N)nc(N)c2n1)c1ccc(C(=O)N[C@@H](CCC(=O)O)C(=O)O)cc1 [MTX, Methotrexate]
  serum level of TNF-α: below 0
